Assay [1] deals with T1, H14-ZZ-bdSUMO-tagged Pdr6 (S. cerevisiae) (UniProt P32767).
T1 sequence: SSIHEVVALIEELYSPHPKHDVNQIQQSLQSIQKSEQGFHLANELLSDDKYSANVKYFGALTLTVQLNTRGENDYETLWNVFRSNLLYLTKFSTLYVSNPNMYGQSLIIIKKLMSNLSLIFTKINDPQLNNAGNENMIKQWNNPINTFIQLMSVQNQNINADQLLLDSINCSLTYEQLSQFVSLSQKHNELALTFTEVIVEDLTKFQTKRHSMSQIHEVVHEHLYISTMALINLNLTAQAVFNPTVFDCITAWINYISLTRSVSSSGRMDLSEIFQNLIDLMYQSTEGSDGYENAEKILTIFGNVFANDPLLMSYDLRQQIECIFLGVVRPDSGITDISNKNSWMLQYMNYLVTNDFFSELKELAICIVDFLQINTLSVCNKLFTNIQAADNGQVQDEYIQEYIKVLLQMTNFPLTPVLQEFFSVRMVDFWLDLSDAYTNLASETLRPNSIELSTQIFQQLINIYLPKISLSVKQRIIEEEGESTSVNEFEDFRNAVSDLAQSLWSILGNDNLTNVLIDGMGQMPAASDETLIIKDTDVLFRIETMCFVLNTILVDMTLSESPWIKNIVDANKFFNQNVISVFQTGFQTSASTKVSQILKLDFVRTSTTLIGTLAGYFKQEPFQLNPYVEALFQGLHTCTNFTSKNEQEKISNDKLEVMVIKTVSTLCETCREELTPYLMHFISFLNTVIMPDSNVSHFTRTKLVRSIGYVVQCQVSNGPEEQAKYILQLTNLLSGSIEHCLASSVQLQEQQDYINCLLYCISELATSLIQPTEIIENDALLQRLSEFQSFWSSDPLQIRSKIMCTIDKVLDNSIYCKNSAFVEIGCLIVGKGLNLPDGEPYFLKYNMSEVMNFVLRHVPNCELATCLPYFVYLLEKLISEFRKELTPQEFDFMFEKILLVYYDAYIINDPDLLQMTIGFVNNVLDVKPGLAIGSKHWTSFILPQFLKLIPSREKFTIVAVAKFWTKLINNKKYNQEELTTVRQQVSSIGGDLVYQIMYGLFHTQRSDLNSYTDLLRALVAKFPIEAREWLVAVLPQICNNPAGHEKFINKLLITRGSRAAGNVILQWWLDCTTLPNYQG
Description: pull-down; 1 µM H14-ZZ-bdSUMO-tagged NTR with 2 µM human or yeast eIF5A in the presence of 2 µM RanGTP; retrieved via the tagged NTR by anti-Protein A beads, eluted by bdSENP1 protease, SDS-PAGE and Coomassie; both purified.

Protein sequences, listed by entry. Tags and fused reporters are not part of them. Residues count along the entry.
UniProt Q9ESJ0: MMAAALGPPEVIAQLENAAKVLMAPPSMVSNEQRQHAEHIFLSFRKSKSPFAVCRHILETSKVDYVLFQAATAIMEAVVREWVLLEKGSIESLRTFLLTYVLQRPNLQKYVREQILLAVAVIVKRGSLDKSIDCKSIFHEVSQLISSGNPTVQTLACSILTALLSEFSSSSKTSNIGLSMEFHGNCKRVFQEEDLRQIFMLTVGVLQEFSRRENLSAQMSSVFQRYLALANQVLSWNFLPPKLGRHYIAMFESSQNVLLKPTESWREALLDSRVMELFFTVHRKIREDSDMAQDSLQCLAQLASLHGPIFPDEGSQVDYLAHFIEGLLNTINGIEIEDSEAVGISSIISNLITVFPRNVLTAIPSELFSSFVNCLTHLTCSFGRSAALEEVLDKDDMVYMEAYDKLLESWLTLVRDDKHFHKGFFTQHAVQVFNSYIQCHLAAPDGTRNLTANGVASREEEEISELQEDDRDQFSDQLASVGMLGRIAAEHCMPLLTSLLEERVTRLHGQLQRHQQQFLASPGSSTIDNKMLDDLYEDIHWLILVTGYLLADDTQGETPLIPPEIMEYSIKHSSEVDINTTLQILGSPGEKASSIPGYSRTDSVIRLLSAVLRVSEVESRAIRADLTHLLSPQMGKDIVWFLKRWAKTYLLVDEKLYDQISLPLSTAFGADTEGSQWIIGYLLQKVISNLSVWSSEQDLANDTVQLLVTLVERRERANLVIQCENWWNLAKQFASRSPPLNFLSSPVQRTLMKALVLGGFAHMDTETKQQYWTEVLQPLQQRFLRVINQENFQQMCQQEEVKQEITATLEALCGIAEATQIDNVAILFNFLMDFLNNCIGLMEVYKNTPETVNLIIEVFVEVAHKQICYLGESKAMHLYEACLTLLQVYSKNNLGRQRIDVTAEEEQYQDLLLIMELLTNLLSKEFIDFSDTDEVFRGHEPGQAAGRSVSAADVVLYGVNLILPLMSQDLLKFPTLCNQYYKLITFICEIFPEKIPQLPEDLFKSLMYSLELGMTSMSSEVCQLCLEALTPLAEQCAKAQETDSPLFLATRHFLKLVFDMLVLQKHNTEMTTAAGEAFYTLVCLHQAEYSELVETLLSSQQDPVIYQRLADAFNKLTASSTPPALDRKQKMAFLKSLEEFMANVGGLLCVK
UniProt P63241, residues 15-154: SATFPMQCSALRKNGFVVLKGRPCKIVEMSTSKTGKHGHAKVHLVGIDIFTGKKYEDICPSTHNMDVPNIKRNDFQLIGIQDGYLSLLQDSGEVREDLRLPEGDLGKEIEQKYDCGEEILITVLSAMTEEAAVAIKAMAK

In assay [2] the target is H14-ZZ-bdSUMO-tagged mouse Xpo4 (mouse) (UniProt Q9ESJ0). The description is as above.

Results are given in words; binding and its absence hold for the method and conditions named. Some entries that bind do so weakly or less than the wild type. For some assays here: Where a sequence is shown, tags or fusion partners need not be part of it.

Consider “human eIF5A (from UniProt P63241 15-154)”, for which the binding result in assay [1] and in assay [2] was “binds” throughout.

(Values after PMC6548137.)
